For the experiment, the target named is human FRK expressed in INS-1 cells (human) (UniProt P42685). The experiment can be described thus: proximity ligation; Duolink PLA in INS-1 cells expressing human C3 (stable or cotransfected WT or ΔATG1 plasmid) and transfected with human FRK plasmid; mouse anti-human C3/C3a and goat anti-FRK primary antibodies.

Chains of the proteins cited; added tags and fusions are not shown. Lines headed by an entry give the natural chain unless they say otherwise; changes in a name come on top.
UniProt P42685: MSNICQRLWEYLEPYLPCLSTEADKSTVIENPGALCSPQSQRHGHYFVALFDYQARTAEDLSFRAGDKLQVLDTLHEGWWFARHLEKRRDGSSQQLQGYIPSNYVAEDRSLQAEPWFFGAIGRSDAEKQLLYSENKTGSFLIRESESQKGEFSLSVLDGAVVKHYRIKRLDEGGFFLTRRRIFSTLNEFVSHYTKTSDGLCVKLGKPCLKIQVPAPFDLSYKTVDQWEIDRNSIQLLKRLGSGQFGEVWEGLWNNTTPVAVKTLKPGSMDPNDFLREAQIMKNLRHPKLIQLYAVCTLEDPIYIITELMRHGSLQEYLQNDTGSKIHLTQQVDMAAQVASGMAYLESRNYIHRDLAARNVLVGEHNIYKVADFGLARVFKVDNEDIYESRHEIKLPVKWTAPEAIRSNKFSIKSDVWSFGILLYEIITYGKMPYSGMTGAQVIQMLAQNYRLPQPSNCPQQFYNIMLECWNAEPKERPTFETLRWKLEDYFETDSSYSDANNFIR
UniProt P01024: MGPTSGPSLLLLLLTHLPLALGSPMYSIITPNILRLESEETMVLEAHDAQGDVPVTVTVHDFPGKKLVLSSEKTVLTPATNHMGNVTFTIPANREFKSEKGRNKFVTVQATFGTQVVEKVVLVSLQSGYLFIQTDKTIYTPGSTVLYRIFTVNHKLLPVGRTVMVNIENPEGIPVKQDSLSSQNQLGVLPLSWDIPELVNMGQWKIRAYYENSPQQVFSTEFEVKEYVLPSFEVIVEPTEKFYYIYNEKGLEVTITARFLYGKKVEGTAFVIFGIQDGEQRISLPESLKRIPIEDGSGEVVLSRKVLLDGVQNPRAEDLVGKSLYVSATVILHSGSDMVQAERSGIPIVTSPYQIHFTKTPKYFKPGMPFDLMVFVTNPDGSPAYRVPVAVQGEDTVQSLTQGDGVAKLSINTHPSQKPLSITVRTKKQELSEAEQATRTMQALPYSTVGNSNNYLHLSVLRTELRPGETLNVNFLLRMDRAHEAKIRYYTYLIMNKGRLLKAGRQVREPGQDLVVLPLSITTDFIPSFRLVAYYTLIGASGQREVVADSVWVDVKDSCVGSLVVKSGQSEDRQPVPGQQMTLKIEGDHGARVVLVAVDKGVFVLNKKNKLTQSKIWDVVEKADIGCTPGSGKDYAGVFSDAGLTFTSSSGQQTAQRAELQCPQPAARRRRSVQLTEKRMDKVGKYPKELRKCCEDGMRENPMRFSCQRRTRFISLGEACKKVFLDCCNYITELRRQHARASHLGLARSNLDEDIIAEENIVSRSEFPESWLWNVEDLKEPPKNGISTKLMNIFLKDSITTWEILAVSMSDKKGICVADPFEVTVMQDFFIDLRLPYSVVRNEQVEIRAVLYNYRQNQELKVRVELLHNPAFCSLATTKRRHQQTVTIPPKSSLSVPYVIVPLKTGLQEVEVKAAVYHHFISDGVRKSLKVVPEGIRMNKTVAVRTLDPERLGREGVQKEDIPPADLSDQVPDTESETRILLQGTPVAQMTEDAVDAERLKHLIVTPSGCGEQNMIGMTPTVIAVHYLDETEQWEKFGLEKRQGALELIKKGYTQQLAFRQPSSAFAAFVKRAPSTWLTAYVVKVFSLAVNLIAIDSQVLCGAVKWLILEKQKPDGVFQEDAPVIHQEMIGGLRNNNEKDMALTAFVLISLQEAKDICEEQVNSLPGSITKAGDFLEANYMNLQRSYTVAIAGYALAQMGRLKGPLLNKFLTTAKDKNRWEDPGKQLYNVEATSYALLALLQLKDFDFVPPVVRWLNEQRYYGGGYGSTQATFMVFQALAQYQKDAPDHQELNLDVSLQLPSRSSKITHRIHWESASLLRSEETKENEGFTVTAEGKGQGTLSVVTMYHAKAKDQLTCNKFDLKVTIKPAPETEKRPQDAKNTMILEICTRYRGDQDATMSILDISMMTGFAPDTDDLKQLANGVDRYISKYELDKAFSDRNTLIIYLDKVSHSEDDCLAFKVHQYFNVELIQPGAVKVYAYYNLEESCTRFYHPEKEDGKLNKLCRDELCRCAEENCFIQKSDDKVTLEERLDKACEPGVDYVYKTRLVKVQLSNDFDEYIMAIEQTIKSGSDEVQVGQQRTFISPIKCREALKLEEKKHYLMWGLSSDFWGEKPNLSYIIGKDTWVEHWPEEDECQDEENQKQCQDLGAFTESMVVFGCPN

These are yes or no findings as the source states them, for the method shown. Binding seen in cells or lysates may run through a third protein. Binding can be weak; no strength is given.

In the case of “ΔATG1 human C3 (cytosolic C3) (from UniProt P01024)”, the binding entry was “binds”.
